Test results from patent US6908730B2, “Silver halide material comprising low stain antenna dyes” (Eastman Kodak Company, priority 2003, dated 2005).

Assays:
[1] = Granularity readings on processed strips; settings: for Relative Granularity: relative granularity at Dmin, each g.u. represents a 5% change, negative = less grainy
Protocol: Film coating evaluations were carried out in color format on a sulfur-and-gold sensitized 2.6 μm×0.13 μm silver bromide tabular emulsion containing 3.7 mole % iodide. Three emulsion melts were prepared. Each emulsion was heated to 43° C. and sodium thiocyanate (100 mg/Ag mole) was added. After a 5′ hold, 3-(2-methylsulfamoylethyl)-benzothiazolium tetrafluoroborate (35 mg/Ag mole) was added followed by a 2′ hold. Then the first sensitizing dye, I-1 was added. After a 20′ hold, the second sensitizing dye, I-2, was added with a subsequent 10′ hold. This was followed by the addition of sodium aurous dithiosulfate dihydrate (1.89 mg/Ag mole). After a 2′ hold, sodium thiosulfate pentahydrate (0.84 mg/Ag mole) was added, followed by a 2′ hold. The emulsion was held for 15′ at 60° C. After cooling to 43° C., 1-(3-acetamidophenyl)-5-mercaptotetrazole (25 mg/Ag mole) was added with a subsequent hold for 2′. Then either no dye was added (Example 1—1) or 1.3 mmole/mole-Ag of either antenna dye C-1 (Example 1-2) or antenna dye II-1 (Example 1-3) was added followed by a 30′ hold. Next, (2,5-dihydroxy-4-(1-methylheptadecy)-benenesulfonic acid, sodium salt) was added followed by a 2′ hold. This was followed with the addition of Aerosol-OT and a 2′ hold. Then, 4-hydroxy-6-methyl-1,3,3a,7-tetraazaindene, sodium salt, monohydrate, (1 g/Ag mole) was added and then held for 5′. The melt was subsequently chilled at 5° C. Before coating, the emulsion was combined with gelatin and distilled water; and subsequently heated to 40° C. to mix components. Single-layer coatings were made on acetate support. Silver laydown was 807 mg/m^2 (75 mg/ft^2). The silver melt was combined with a coupler dispersion containing a magenta forming coupler M-1 at a laydown of 226 mg/m^2 (21 mg/ft^2). Gelatin laydown was 3228 mg/m^2 (300 mg/ft^2). A hardened overcoat was at 2690 mg/m^2 (250 mg/ft^2) gelatin. […] Granularity readings on processed strips were made according to procedures described in the SPSE Handbook of Photographic Science and Engineering, edited by W. Thomas, pp. 934-939. […]

[2] = Test for dye stain (developer-free pH-10 buffer, bleach-wash-fix-wash); settings: for Relative Stain: 1.3 mmole/mole-Ag antenna dye, density, status M filter, relative to comparison example with only one dye layer
Protocol: Film coating evaluations were carried out in color format on a sulfur-and-gold sensitized 2.6 μm×0.13 μm silver bromide tabular emulsion containing 3.7 mole % iodide. Three emulsion melts were prepared. Each emulsion was heated to 43° C. and sodium thiocyanate (100 mg/Ag mole) was added. After a 5′ hold, 3-(2-methylsulfamoylethyl)-benzothiazolium tetrafluoroborate (35 mg/Ag mole) was added followed by a 2′ hold. Then the first sensitizing dye, I-1 was added. After a 20′ hold, the second sensitizing dye, I-2, was added with a subsequent 10′ hold. This was followed by the addition of sodium aurous dithiosulfate dihydrate (1.89 mg/Ag mole). After a 2′ hold, sodium thiosulfate pentahydrate (0.84 mg/Ag mole) was added, followed by a 2′ hold. The emulsion was held for 15′ at 60° C. After cooling to 43° C., 1-(3-acetamidophenyl)-5-mercaptotetrazole (25 mg/Ag mole) was added with a subsequent hold for 2′. Then either no dye was added (Example 1—1) or 1.3 mmole/mole-Ag of either antenna dye C-1 (Example 1-2) or antenna dye II-1 (Example 1-3) was added followed by a 30′ hold. Next, (2,5-dihydroxy-4-(1-methylheptadecy)-benenesulfonic acid, sodium salt) was added followed by a 2′ hold. This was followed with the addition of Aerosol-OT and a 2′ hold. Then, 4-hydroxy-6-methyl-1,3,3a,7-tetraazaindene, sodium salt, monohydrate, (1 g/Ag mole) was added and then held for 5′. The melt was subsequently chilled at 5° C. Before coating, the emulsion was combined with gelatin and distilled water; and subsequently heated to 40° C. to mix components. Single-layer coatings were made on acetate support. Silver laydown was 807 mg/m^2 (75 mg/ft^2). The silver melt was combined with a coupler dispersion containing a magenta forming coupler M-1 at a laydown of 226 mg/m^2 (21 mg/ft^2). Gelatin laydown was 3228 mg/m^2 (300 mg/ft^2). A hardened overcoat was at 2690 mg/m^2 (250 mg/ft^2) gelatin. The described elements were processed for 3.25′ in the known C-41 color process. Sensitometric exposures (0.01 sec) were done using tungsten light with filtration to stimulate a daylight exposure. […]

Compound: C[N+](C)(C)CCCN1/C(=C/C=C(\C#N)C(=C(C#N)C#N)c2ccccc2)Oc2ccc(-c3ccccc3)cc21 [Dye C-1, reference compound]
- Relative Granularity [1]: 0 g.u.
- Relative Stain [2]: 0.031

Compound: C[N+](CCO)(CCO)CCCN1/C(=C/C=C(\C#N)C(=C(C#N)C#N)c2ccccc2)Oc2ccc(-c3ccccc3)cc21 [II-1]
- granularity compared with dye C-1 ([1]; in words): lower granularity
- Relative Granularity [1]: −2 g.u.
- Relative Stain [2]: 0.021
- lower dye stain than emulsion having antenna dye C-1 ([2]; emulsion 1-3 versus emulsion 1-2): ~30%
